According to the supplement of paper PMC7877785:
± gives the uncertainty stated by the source. Many entries were measured with a wide error.

Experiment: self-splicing fitness, log relative to wild type (ln ratio); higher = more splicing; Tetrahymena group I intron in knt gene, E. coli kanamycin selection, DiMSum; sequences stand for … in CUCUCU…GGAGGGAAAAGUUAUCAGGCAUGCACCUGGUAGCUAGUCUUUAAACCAAUAGAUUGCAUCGGUUUAAAAGGCAAGACCGUCAAAUUGCGGGAAAGGGGUCAACAGCCGUUCAGUACCAAGUCUCAGGGGAAACUUUGAGAUGGCCUUGCAAAGGGUAUGGUAAUAAGCUGACGGACAUGGUCCUAACCACGCAGCCAAGUCCUAAGUCAACAGAUCUUCUGUUGAUAUGGAUGCAGUUCACAGACUAAAUGUCGGUCGGGGAAGAUGUAUUCUUCUCAUAAGAUAUAGUCGGACCUCUCCUUAAUGGGAGCUAGCGGAUGAAGUGAUGCAACACUGGAGCCGCUGGGAACUAAUUUGUAUGCGAAAGUAUAUUGAUUAGUUUUGGAGUACUCGUGGUCG
In short: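 Pooled colonies went to amplicon sequencing on an Illumina HiSeq 2500 after six replicate transformations. The plates were LB agar with 100 μg/mL carbenicillin, 50 μM IPTG and 0.2% rhamnose, with or without 25 μg/mL kanamycin, incubated overnight at 37°C or 30°C. The E. coli BL21(DE3) library had all eight P1ex-region intron nucleotides randomised, the intron placed in the knt kanamycin-resistance gene on pET-22b(+). DiMSum fitness is the error-weighted combination of replicate fold changes, kanamycin against none, normalised to wild type.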

Sequence	self-splicing fitness (ln) (30 °C)	self-splicing fitness (ln) (37 °C)
CGCAAGCAAUAUUACGUAGU	-3.1 ± 0.097	-2.75 ± 0.098
GGAGAGCAAUAUUACGCUAU	-4.11 ± 0.52	-1.69 ± 0.82
UCGGAGCAAUAUUACGAUCC	-4.12 ± 0.73	-1.83 ± 0.56
AGCUAGCAAUAUUACGCCCG	-2.95 ± 1.1	
GAGUAGCAAUAUUACGUCGG		-2.26 ± 0.55
CGUGAGCAAUAUUACGCUCA		-2.37 ± 0.55
CUGGAGCAAUAUUACGAACU		-1.79 ± 1.2
UAGGAGCAAUAUUACGUCUC		-2.28 ± 0.63
AUCUAGCAAUAUUACGCCGC	-3.12 ± 0.62	-1.77 ± 0.83
CCUAAGCAAUAUUACGCCAC		-1.69 ± 0.57
GUGUAGCAAUAUUACGACAG		-2.91 ± 0.65
UCAGAGCAAUAUUACGUACG	-1.96 ± 0.24	-1.96 ± 0.28
CGGGAGCAAUAUUACGGAAA		-3.04 ± 0.52
CUGCAGCAAUAUUACGAAAC	-4.49 ± 1	
CCUUAGCAAUAUUACGAAGG		-3.69 ± 0.73
CGUUAGCAAUAUUACGUCGC	-2.58 ± 0.8	
AACCAGCAAUAUUACGAUUC	-1.63 ± 0.071	-0.153 ± 0.084
ACAGAGCAAUAUUACGCCCA	-1.33 ± 0.52	
CUAGAGCAAUAUUACGUUCU	-3.79 ± 0.21	-2.21 ± 0.22
UAAAAGCAAUAUUACGUUUG	-2.22 ± 0.1	-0.909 ± 0.11
CGAGAGCAAUAUUACGGAGA		-3.07 ± 1
GUCGAGCAAUAUUACGAGAA	-1.97 ± 1.2	-1.87 ± 0.52
UAAUAGCAAUAUUACGGAAA	-3.14 ± 0.61	
UAGAAGCAAUAUUACGGAAC	-1.25 ± 0.34	-2.51 ± 0.62

Sequence	self-splicing fitness (ln) (30 °C)	self-splicing fitness (ln) (37 °C)
AUCCAGCAAUAUUACGUGAA	-0.631 ± 0.049	-0.212 ± 0.072
UAGAAGCAAUAUUACGAGCC	-4.6 ± 0.59	
CGGUAGCAAUAUUACGGUAC	-3.22 ± 0.54	
CCGGAGCAAUAUUACGCAAU		-2.27 ± 0.56
CGUGAGCAAUAUUACGACAA	-4.31 ± 0.51	
CCGUAGCAAUAUUACGAGAC		-1.69 ± 1.2
UCUCAGCAAUAUUACGCGCA	-0.638 ± 0.16	-0.617 ± 0.18
CCCAAGCAAUAUUACGCCGA		-3.7 ± 0.59
CAAUAGCAAUAUUACGUAAA	-2.68 ± 0.28	-2.27 ± 0.4
CCGAAGCAAUAUUACGCCAA	-2.33 ± 0.64	-2.76 ± 0.76
CCAGAGCAAUAUUACGAUCA	-4.41 ± 0.52	
GAUCAGCAAUAUUACGGGGG	-3.25 ± 0.18	-2.51 ± 0.18
GGAUAGCAAUAUUACGCUCU		-2.3 ± 1.1
UGUAAGCAAUAUUACGAGAA	-2.62 ± 1.1	
GGUUAGCAAUAUUACGGCCU	-4.4 ± 1	
AAUAAGCAAUAUUACGCGGU	-3.83 ± 0.24	-2.36 ± 0.17
CCCCAGCAAUAUUACGACCG	-4.12 ± 0.26	-1.76 ± 0.34
UUAUAGCAAUAUUACGCGCU	-2.25 ± 0.14	-1.55 ± 0.13
GCACAGCAAUAUUACGUGCC		-3.45 ± 0.6
AUAAAGCAAUAUUACGGGAC	-1.72 ± 0.1	-2.4 ± 0.16
GCCUAGCAAUAUUACGCUGC	-4.85 ± 0.58	
AAUGAGCAAUAUUACGCUGC	-4.31 ± 0.59	
CGACAGCAAUAUUACGUAAC	-4.37 ± 0.23	-2.03 ± 0.31

In a second layout: results already given
Sequence | self-splicing fitness (ln) (30 °C) | self-splicing fitness (ln) (37 °C)
CCAGAGCAAUAUUACGAUCA | -4.41 ± 0.52 | 
GAUCAGCAAUAUUACGGGGG | -3.25 ± 0.18 | -2.51 ± 0.18
GGAUAGCAAUAUUACGCUCU |  | -2.3 ± 1.1
UGUAAGCAAUAUUACGAGAA | -2.62 ± 1.1 | 
GGUUAGCAAUAUUACGGCCU | -4.4 ± 1 | 
AAUAAGCAAUAUUACGCGGU | -3.83 ± 0.24 | -2.36 ± 0.17
CCCCAGCAAUAUUACGACCG | -4.12 ± 0.26 | -1.76 ± 0.34
UUAUAGCAAUAUUACGCGCU | -2.25 ± 0.14 | -1.55 ± 0.13
GCACAGCAAUAUUACGUGCC |  | -3.45 ± 0.6
